Assay results: patent US20160221948A1, “NITROGEN-CONTAINING SATURATED HETEROCYCLIC COMPOUND” (SUMITOMO CHEMICAL COMPANY, LIMITED, priority 2013, published 2016)
At least one compound was matched to its structure with a doubt left. Some entries repeat one wording, which the source may state once for all of them.

By UniProt entry, the sequences of proteins in these tests, tags left out. Where a name states a change or a piece, a line headed by the entry shows the natural chain unless it says otherwise.
UniProt P31391: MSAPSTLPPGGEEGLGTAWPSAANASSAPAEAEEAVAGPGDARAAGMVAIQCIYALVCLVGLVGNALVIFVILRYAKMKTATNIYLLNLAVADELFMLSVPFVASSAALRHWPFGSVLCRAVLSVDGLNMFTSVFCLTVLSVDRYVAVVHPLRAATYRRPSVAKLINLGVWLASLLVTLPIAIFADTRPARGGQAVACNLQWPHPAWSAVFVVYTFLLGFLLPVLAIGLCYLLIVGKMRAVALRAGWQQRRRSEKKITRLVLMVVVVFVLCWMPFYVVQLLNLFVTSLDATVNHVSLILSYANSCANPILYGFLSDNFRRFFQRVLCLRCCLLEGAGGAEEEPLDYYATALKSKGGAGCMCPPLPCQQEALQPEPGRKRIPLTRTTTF

Each compound was assayed against human SSTR4 (Homo sapiens, UniProt P31391) (assay: Evaluation of agonist activities using human SSTR4-stably expressing cells (aequorin luminescence)). Conditions: Tables 25 to 27.
Format: cell-based
Design: expressed in transfected cells; host or cells: HEK293
Protocol: Evaluation of Agonist Activities Using Cells that stably expressing human-derived SSTR4 (human SSTR4-stably expressing cells)
(1) Human SSTR4-Stably Expressing Cells
Human SSTR4-stably expressing cells were prepared, and cultured. Specifically, HEK293 cells, human kidney-derived cells, were used as host cells. By introducing pcDNA3.1 (cat. No. V79020, invitrogen, Carlsbad, Calif., USA) to which human SSTR gene was inserted into HEK293 cells, human SSTR4-stably expressing cell line was obtained. For selection, G418 (cat. No. 16513-84, Nacalai tesque, Japan) was used.
As the culture medium, D-MEM medium (cat. No. 11995, GIBCO, USA), containing 10% FBS and 200 μg/mL G418, was used, the culture was performed in a 225 cm^2 flask (cat. No. 11-006-010, Iwaki, Japan).
At about 80% confluence, the cells were harvested by treating with 20-fold diluted 0.25% Trypsin-EDTA (cat. No. 35554-64, Nacalai, tesque, Japan). The harvested cells were prepared at a reaction medium composed of Hanks Buffer (cat. No. 14065-056, invitrogen, Carlsbad, Calif., USA)/20 mM Hepes (cat. No. 15630-080, invitrogen, Carlsbad, Calif., USA), and 0.1% BSA (cat. No. A7906, Sigma Aldrich, USA) to 70000 cells/mL. Gα16 and apoaequorin were transiently introduced to the harvested cells, and the cells were seeded to a 384 well plate (cat. No. 781090, Greiner, Germany) at about 2000 cells/30 μL/well. On the next day of cell seeding, Coelenterazine H (cat. No. S2011, Promega, USA) was added to each well (10 μL/well) to make a final concentration of 0.5 μmol/L, and the plate was centrifuged. Then, the plate was left at room temperature for 4 hours in shaded state.
(2) Preparation of Test Compounds
DMSO solution of each test compound having 1000-fold larger concentration than the final concentration was prepared. The DMSO solutions were made to have 10-fold concentration than the final concentration with Hanks/20 mmol/L Hepes/0.1% BSA.
(3) Evaluation of Agonist Activity
For detection of luminescence signal due to SSTR4-stimulation, FDSS7000 (manufactured by Hamamatsu Photonics K.K.) was used. To plates having cells and the luminescence substrate, solutions of test compounds were added, then each luminescence signal was measured for 90 seconds, and each relative luminescence unit (RLU) was calculated. Based on luminescence signal from the wells to which a 1 μmol/L somatostatin solution was added taken as 100%, agonist activity of each test compound was evaluated.

SSTR4 agonist activity compared with other compounds, stronger SSTR4 agonist activity:
C[C@@H]1CC[C@@H](C(=O)NC(C)(C)c2cccc3ccccc23)CN1C (relative stereo) [Example 82]
CN1CCC[C@H](C(=O)NC(C)(C)c2ccccc2Br)C1 [Example 67, (3S)—N-[2-(2-bromophenyl)propane-2-yl]-1-methylpiperidine-3-carboxamide]
CN1CCC[C@H](C(=O)NC(C)(C)c2ccc(F)cc2Cl)C1 [Example 72, (3S)—N-[2-(2-chloro-4-fluorohenyl)propane-2-yl]-1-methylpiperidine-3-carboxamide]
CCc1ccccc1C(C)(C)NC(=O)[C@H]1CCCN(C)C1 [Example 76, (3S)—N-[2-(2-ethylphenyl)propane-2-yl]-1-methylpiperidine-3-carboxamide]
CN1CCC(C(=O)NC(C)(C)c2cccc3ccccc23)C1 (stereo not shown) [Example 77]
COC1CC(C(=O)NC(C)(C)c2cccc3ccccc23)CN(C)C1 (stereo not shown) [Example 91]
CN1CC(F)CC(C(=O)NC(C)(C)c2cccc3ccccc23)C1 (stereo not shown) [Example 92]
